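Histidine-tRNA ligase, Leishmania infantum (UniProt A4I591). Enzyme assay of histidyl-tRNA synthetase; the read-out is not stated. Compounds at 30 µM. The record gives no direction; compounds that gave an IC50 in retests scored well above the rest, so higher reads as stronger inhibition. The assay is labelled LdHisRS but filed under L. infantum. Size under these conditions: about 69,000 compounds, about 410 of them at 50% or above in at least one test.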

By UniProt entry, the sequences of proteins in these tests, tags left out. Residues count along the entry.
UniProt A4I591, 1-473: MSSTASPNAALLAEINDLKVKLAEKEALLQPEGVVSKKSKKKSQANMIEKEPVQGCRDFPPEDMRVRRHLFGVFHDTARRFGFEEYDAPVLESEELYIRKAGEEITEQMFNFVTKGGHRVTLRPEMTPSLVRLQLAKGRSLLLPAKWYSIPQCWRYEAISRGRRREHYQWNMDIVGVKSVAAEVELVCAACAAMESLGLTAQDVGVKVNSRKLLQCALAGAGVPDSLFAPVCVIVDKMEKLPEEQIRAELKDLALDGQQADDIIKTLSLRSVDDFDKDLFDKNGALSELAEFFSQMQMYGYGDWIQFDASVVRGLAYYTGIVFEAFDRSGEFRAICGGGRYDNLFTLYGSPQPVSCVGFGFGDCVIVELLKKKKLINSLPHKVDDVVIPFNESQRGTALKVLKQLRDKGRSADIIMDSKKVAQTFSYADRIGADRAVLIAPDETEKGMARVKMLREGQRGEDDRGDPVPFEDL

Results are given as percent effect. The record does not define 0% and 100%; most values in the screen are far below 50% and negative numbers occur (in some assays of this library far below -100). Compounds were drawn at random from those tested, without regard to their results.

{"smiles": "Cc1occc1C(=O)N(CCN(C)C)Cc1ccccn1", "effect": -8.602}
{"smiles": "CCc1ccccc1NC(=O)c1cccc(N(C)S(C)(=O)=O)c1C", "effect": 5.319}
{"smiles": "Cc1cnc(CN(C)C2CCN(Cc3sc(C)nc3C)C2)o1", "stereo": "stereo not given", "effect": -5.128}
{"smiles": "CCc1nc(CN2CCN(C(=O)C3CCCCC3)CC2)cs1", "effect": -2.128}
{"smiles": "Cc1nsc(N2CCN(Cc3cccc(F)c3)CC2)n1", "effect": 10.32}
{"smiles": "COc1ccc(S(=O)(=O)NCC(O)c2sccc2C)cc1C", "stereo": "stereo not given", "effect": 15.65}
{"smiles": "C=C(C)COc1cccc(CN(C)C(C)c2nccs2)c1", "stereo": "stereo not given", "effect": 5.263}
{"smiles": "O=C(c1ncccn1)N1C[C@H]2CCC[C@@]2(COCc2ccncc2)C1", "effect": 12.62}
{"smiles": "COCCN1CC[C@@H]2OC(COCC(=O)N3CCCC3)CC[C@@H]21", "stereo": "stereo not given in full", "effect": 9.677}
{"smiles": "O=C(CCO)N1CCC2(CCc3ccc(-c4ccoc4)cc32)CC1", "effect": 22.41}
{"smiles": "Cc1c(C(=O)NCCC(=O)N2CCOCC2)sc2ccc(F)cc12", "effect": 17.86}
{"smiles": "Cn1cc(NS(=O)(=O)CC2CCCCO2)cn1", "stereo": "stereo not given", "effect": 17.12}
{"smiles": "O=C([C@H]1COC[C@H]2CN(C3CCCC3)C[C@H]21)N1CCCO1", "effect": 2.778}
{"smiles": "O=C(c1ccncc1)N1CCCn2nnc(COCCO)c2C1", "effect": 17.95}
{"smiles": "Cn1nc(Cn2cccn2)c2c1CN(Cc1ccoc1)C2", "effect": 18.8}
{"smiles": "Cc1ccc(N2CCCC(NCC(=O)Nc3cc(C)nn3C)C2)nn1", "stereo": "stereo not given", "effect": 10.53}
{"smiles": "Cc1ncc(CN2CCCC2c2ccc(C(=O)NCc3ccoc3)s2)s1", "stereo": "stereo not given", "effect": 10.75}
{"smiles": "O=C(C1CCC1)N1C[C@@H]2CC[C@H](C1)N(S(=O)(=O)c1ccccc1)C2", "effect": 7.229}
{"smiles": "O=C(c1coc(-c2ccccc2)n1)N1CCCCC1", "effect": 5.882}
{"smiles": "Cc1nnc(NCc2ccc(SC(F)F)cc2)o1", "effect": 10.92}
{"smiles": "CC(=O)N1CCCC2(CCN(c3nncs3)C2)C1", "stereo": "stereo not given", "effect": 12}
{"smiles": "COc1ccc(C(C)(C)C(=O)NCc2n[nH]c(=O)[nH]2)cc1", "effect": 7.853}
{"smiles": "CC(=O)N1CCN(c2ccnc(C)n2)CC(COc2ccccc2)C1", "stereo": "stereo not given", "effect": 20.62}
{"smiles": "CC(C)NC(=O)c1cc(Br)c2c(c1)OCCO2", "effect": 12.07}
{"smiles": "CN(C)S(=O)(=O)N1CCCC(c2cccc(Cc3ccccc3F)n2)C1", "stereo": "stereo not given", "effect": 10.14}
{"smiles": "Cc1ccccc1CN1CCN(C(=O)c2cnc(C3CC3)[nH]c2=O)CC1", "effect": 2.564}
{"smiles": "CSCC[C@@H]1CN2CCC[C@H]2CN1Cc1coc2ccc(C)cc2c1=O", "effect": 18.84}
{"smiles": "OC1(c2cn(CC3CCN(C4CCSC4)CC3)nn2)CCCC1", "stereo": "stereo not given", "effect": 11.48}
{"smiles": "Cc1cc(NC(=O)c2ccc(N3CCOCC3)c(F)c2)[nH]n1", "effect": 13.16}
{"smiles": "CS(=O)(=O)c1ccc(Cl)c(C(=O)NCCC2=CCCCC2)c1", "effect": 28}
{"smiles": "O=C1CCN(Cc2cnc3c(-c4ccccc4)cnn3c2)CCN1", "effect": 10.53}
{"smiles": "CC(NC(N)=O)C(=O)N1CCCN(Cc2nccn2C(C)C)CC1", "stereo": "stereo not given", "effect": -2.703}
{"smiles": "Cn1cnc(-c2nc(C(=O)NCCN3CCOCC3)c3ccccn23)c1", "effect": 20}
{"smiles": "O=C(c1nnn(-c2ccc(F)cc2)n1)N1CCC(O)CC1", "effect": 13.91}
{"smiles": "CN(C)c1ccc(C(=O)Nc2cnn(Cc3ccccn3)c2)cc1", "effect": 20.16}
{"smiles": "CCN(CC)S(=O)(=O)N1CCCC(c2ccc(C(=O)O)cc2)C1", "stereo": "stereo not given", "effect": 3.846}
{"smiles": "COc1cccc(-n2cc(CN(C)C(=O)c3cnc(O)cn3)cn2)c1", "effect": 25.71}
{"smiles": "O=C(c1ccc(N2CCOCC2)nc1)N1CCCC(n2cccn2)C1", "stereo": "stereo not given", "effect": 12.5}
{"smiles": "CCN1C(=O)[C@H]2CN(CC(C)C)C[C@H]2C12CCN(C(=O)NC(C)C)CC2", "effect": 13.27}
{"smiles": "CCOc1ncccc1NC(=O)NC1CCCN(S(C)(=O)=O)C1", "stereo": "stereo not given", "effect": 10.26}

4 of the entries, repeated:

SMILES	effect
Cc1ccc(N2CCCC(NCC(=O)Nc3cc(C)nn3C)C2)nn1 (stereo not given)	10.53%
COc1ccc(C(C)(C)C(=O)NCc2n[nH]c(=O)[nH]2)cc1	7.853%
CCc1ccccc1NC(=O)c1cccc(N(C)S(C)(=O)=O)c1C	5.319%
Cc1cc(NC(=O)c2ccc(N3CCOCC3)c(F)c2)[nH]n1	13.16%

Data taken from ChEMBL document CHEMBL3988442, “University of Dundee, Small-Polar-MMV Screening Library” (2021).